The target of experiment [1] is Nr5a2 (orphan nuclear receptor NR5A2) (mouse (endogenous in pancreas)) (UniProt P45448). The experiment in a line: co-IP.
For experiment [2] the target is unchanged. The experiment can be described thus: co-IP. This is another data set of the same source.

Sequences of proteins named here, by UniProt entry; tags and fusion partners are left off.
UniProt P45448: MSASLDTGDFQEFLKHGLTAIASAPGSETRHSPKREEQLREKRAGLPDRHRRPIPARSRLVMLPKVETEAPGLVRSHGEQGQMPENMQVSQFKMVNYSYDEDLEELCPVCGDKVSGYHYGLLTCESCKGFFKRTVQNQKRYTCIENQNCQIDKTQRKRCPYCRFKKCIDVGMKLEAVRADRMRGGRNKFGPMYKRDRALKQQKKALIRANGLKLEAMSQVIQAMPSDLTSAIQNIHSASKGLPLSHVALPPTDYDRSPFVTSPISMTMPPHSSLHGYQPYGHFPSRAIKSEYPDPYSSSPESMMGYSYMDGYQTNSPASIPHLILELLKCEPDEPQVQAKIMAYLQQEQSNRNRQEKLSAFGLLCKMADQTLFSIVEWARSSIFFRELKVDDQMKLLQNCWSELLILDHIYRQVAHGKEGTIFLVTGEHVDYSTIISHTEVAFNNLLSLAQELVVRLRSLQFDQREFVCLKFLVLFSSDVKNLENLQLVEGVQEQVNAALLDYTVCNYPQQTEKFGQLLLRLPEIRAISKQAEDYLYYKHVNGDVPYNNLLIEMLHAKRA
UniProt P05627: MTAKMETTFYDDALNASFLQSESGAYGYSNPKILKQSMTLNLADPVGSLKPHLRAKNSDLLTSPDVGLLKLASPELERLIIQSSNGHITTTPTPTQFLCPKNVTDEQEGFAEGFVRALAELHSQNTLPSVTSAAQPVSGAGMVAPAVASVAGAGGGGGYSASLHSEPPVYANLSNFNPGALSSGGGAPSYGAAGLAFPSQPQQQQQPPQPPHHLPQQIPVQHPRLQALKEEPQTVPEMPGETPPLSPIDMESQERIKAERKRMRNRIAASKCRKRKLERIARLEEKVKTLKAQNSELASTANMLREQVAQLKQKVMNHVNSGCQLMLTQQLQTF

Read-outs that look alike come from different tables or passages of the source. No constants are given. Whether binding was seen depends on the method and setting. In cells and extracts the contact can be indirect. Some entries that bind do so weakly or less than the wild type.

Turning to c-Jun (from UniProt P05627 1-334), the binding entry in experiment [1] was “binds”.

B1: Nr0b2/Shp1 (protein, UniProt Q62227 1-260)
chain: MSSGQSGVCPCQGSAGRPTILYALLSPSPRTRPVAPASHSHCLCQQQRPVRLCAPHRTCREALDVLAKTVAFLRNLPSFCHLPHEDQRRLLECCWGPLFLLGLAQDAVTFEVAEAPVPSILKKILLEEASSGTQGAQPSDRPQPSLAAVQWLQRCLESFWSLELGPKEYAYLKGTILFNPDVPGLRASCHIAHLQQEAHWALCEVLEPWYPASQGRLARILLMASTLKNIPGTLLVDLFFRPIMGDVDITELLEDMLLLR
Regarding B1, the binding entry in experiment [2] was “binds”.

Values taken from publication doi:10.1101/209411.
